PubChem BioAssay AID652243 | Drosophila RNAi Screening Center – 2013
Assay: 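Fly genes required for human androgen receptor driven transcription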 (primary screen). System: Drosophila S2R+ cells. Reagent: long dsRNA against Drosophila genes. Timing: 72 h (48 h, then 24 h hormone). Challenge: synthetic androgen R1881 at 10 nM for 24 h. Read-out: 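Per-well raw luminescence of the androgen-driven firefly reporter and of the Renilla control, two replicates each, without normalisation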. Scale: firefly reporter light: higher = more light from androgen-responsive reporter; Renilla control light: higher = more constitutive control signal (cell number, transfection). Hit rule: 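Hit when the log firefly-to-Renilla ratio dropped or increased by a fixed fold versus the mean of GFP or LacZ controls across duplicate plates; lowering cut given as 1.5 and as 3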. Meaning of the calls: active = hit: reporter lowered or raised; inactive = no hit.
In all, the deposit lists about 24,000 reagents; shown is an unselected part of those with a known target gene and a result. In the full data, 246 (1%) got an active call. 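Plates not normalised; calls are printed but the firefly/Renilla ratio behind them is not deposited; fold cut for lowering reported inconsistently.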 Raw values vary from plate to plate and are shown uncorrected. The numbers tell different reagents against one gene apart. A plus sign joins genes that one reagent is predicted to hit. No sequences are given here. The record does not give: the amount of reagent.

gene | reagent | firefly reporter light, replicate 1 | firefly reporter light, replicate 2 | Renilla control light, replicate 1 | Renilla control light, replicate 2 | call
Fancm | 1 | 83875 | 69246 | 7.02e5 | 6.72e5 | inactive
CG17364 | 1 | 1.60e5 | 1.21e5 | 1.82e6 | 9.91e5 | inactive
CG17364 | 2 | 3.22e5 | 3.99e5 | 2.49e6 | 3.09e6 | inactive
CG17364 | 3 | 7.99e5 | 6.99e5 | 1.12e6 | 1.07e6 | inactive
CG17364 | 4 | 2.21e5 | 2.18e5 | 9.46e5 | 9.46e5 | inactive
Ctr9 | 1 | 1.16e6 | 1.06e6 | 1.21e6 | 1.46e6 | inactive
Ctr9 | 2 | 3.23e5 | 2.01e5 | 6.76e5 | 5.81e5 | inactive
CG10864 | 1 | 87732 | 1.86e5 | 9.13e5 | 1.89e6 | inactive
phtf | 1 | 7.70e5 | 9.34e5 | 1.51e6 | 1.78e6 | inactive
phtf | 2 | 4.46e5 | 6.45e5 | 3.27e5 | 1.10e6 | inactive
CG9522 | 1 | 4.02e5 | 4.26e5 | 2.78e6 | 3.29e6 | inactive
TrpA1 | 1 | 1.05e5 | 1.56e5 | 1.31e6 | 1.63e6 | inactive
PrBP | 1 | 1.96e5 | 1.38e5 | 1.56e6 | 1.60e6 | inactive
PrBP | 2 | 2.59e5 | 3.03e5 | 7.08e5 | 5.45e5 | inactive
pr | 1 | 8.91e5 | 9.88e5 | 1.90e6 | 2.34e6 | inactive
Spps | 1 | 5.67e5 | 7.18e5 | 1.12e6 | 1.11e6 | inactive
Cyp313a3 | 1 | 1.26e5 | 1.87e5 | 2.90e6 | 3.48e6 | inactive
rha | 1 | 1.66e5 | 1.25e5 | 9.42e5 | 8.57e5 | inactive
CG10081 | 1 | 85546 | 1.16e5 | 9.89e5 | 1.37e6 | inactive
CG10081 | 2 | 9.12e5 | 9.87e5 | 9.56e5 | 1.04e6 | inactive
Msr-110 | 1 | 4.10e5 | 3.21e5 | 1.00e6 | 1.32e6 | inactive
Msr-110 | 2 | 5.42e5 | 5.09e5 | 5.89e5 | 7.34e5 | inactive
qvr | 1 | 1.78e5 | 1.40e5 | 5.37e5 | 6.66e5 | inactive
CG32199 | 1 | 2.19e5 | 1.48e5 | 2.40e6 | 1.99e6 | inactive
Cont | 1 | 64081 | 91616 | 3.45e5 | 4.18e5 | inactive
CG4558 | 1 | 1.24e5 | 60703 | 8.38e5 | 4.41e5 | inactive
CG18853 | 1 | 4.27e5 | 5.48e5 | 2.32e6 | 1.88e6 | inactive
Wnk | 1 | 9.23e5 | 1.17e6 | 8.45e5 | 8.01e5 | inactive
CG17999 | 1 | 9.01e5 | 8.68e5 | 1.81e6 | 2.16e6 | inactive
nebu | 1 | 7.12e5 | 6.92e5 | 1.85e6 | 2.44e6 | inactive
nebu | 2 | 2.48e5 | 2.34e5 | 2.45e6 | 1.75e6 | inactive
Vml | 1 | 1.06e6 | 8.41e5 | 6.57e5 | 5.21e5 | inactive
Vml | 2 | 3.06e5 | 3.57e5 | 3.12e6 | 3.07e6 | inactive
Vml | 3 | 5.74e5 | 5.84e5 | 8.65e5 | 8.30e5 | inactive
Vml | 4 | 6.28e5 | 5.70e5 | 1.44e6 | 1.18e6 | inactive
mthl5 | 1 | 2.20e5 | 1.78e5 | 3.00e6 | 2.83e6 | inactive
Obp58c | 1 | 2.86e5 | 3.29e5 | 2.00e6 | 1.75e6 | inactive
Diedel | 1 | 1.66e5 | 2.13e5 | 2.31e6 | 3.12e6 | inactive
Diedel | 2 | 2.69e5 | 3.11e5 | 6.98e5 | 1.01e6 | inactive
CG15286 | 1 | 7.90e5 | 8.28e5 | 9.26e5 | 8.95e5 | inactive
mei-38 | 1 | 1.26e5 | 1.62e5 | 3.41e6 | 3.87e6 | inactive
Naa20B | 1 | 7.87e5 | 8.74e5 | 2.45e6 | 2.32e6 | inactive
Naa20B | 2 | 3.30e5 | 2.79e5 | 7.84e5 | 8.39e5 | inactive
Naa20B | 3 | 2.85e5 | 1.86e5 | 1.16e6 | 9.74e5 | inactive
CG43132 (retired record) | 1 | 5.70e5 | 5.35e5 | 4.07e6 | 4.41e6 | inactive
nwk | 1 | 1.06e6 | 8.38e5 | 1.72e6 | 1.27e6 | inactive
nwk | 2 | 1.47e5 | 75261 | 2.32e6 | 9.66e5 | inactive
nwk | 3 | 6.62e5 | 6.75e5 | 6.49e5 | 8.70e5 | inactive
CG31626 + CG8677 | 1 | 2.43e5 | 3.46e5 | 1.04e6 | 1.18e6 | inactive
CG31626 + CG8677 | 2 | 5.10e5 | 4.92e5 | 3.91e5 | 4.70e5 | inactive
CG34458 | 1 | 97408 | 1.31e5 | 2.00e6 | 2.00e6 | inactive
CG6793 | 1 | 3.28e5 | 2.52e5 | 3.58e6 | 2.49e6 | inactive
CG6793 | 2 | 5.61e5 | 5.22e5 | 1.48e6 | 1.49e6 | inactive
CG32603 | 1 | 4.33e5 | 4.29e5 | 3.69e6 | 3.87e6 | inactive
CG32603 | 2 | 3.70e5 | 4.42e5 | 1.17e6 | 1.57e6 | inactive
CG32603 | 3 | 1.01e6 | 9.73e5 | 6.64e5 | 6.20e5 | inactive
Arpc2 | 1 | 7.99e5 | 8.35e5 | 1.52e6 | 1.93e6 | inactive
Gen | 1 | 1.10e6 | 8.37e5 | 1.66e6 | 1.22e6 | inactive

Part of the list above, set out differently.
gene,reagent,"firefly reporter light, replicate 1","firefly reporter light, replicate 2","Renilla control light, replicate 1","Renilla control light, replicate 2",call
Vml,1,1.06e6,8.41e5,6.57e5,5.21e5,inactive
Vml,2,3.06e5,3.57e5,3.12e6,3.07e6,inactive
Vml,3,5.74e5,5.84e5,8.65e5,8.30e5,inactive
Vml,4,6.28e5,5.70e5,1.44e6,1.18e6,inactive
